Assay results from PMC4438057.
These are yes or no findings as the source states them, for the method shown. Binding seen in cells or lysates may run through a third protein. Here binding means that the protein was enriched with, or labelled near, the bait; the list need not be complete.

By UniProt entry, the sequences of proteins in these tests, tags left out.
UniProt Q9Y4G2: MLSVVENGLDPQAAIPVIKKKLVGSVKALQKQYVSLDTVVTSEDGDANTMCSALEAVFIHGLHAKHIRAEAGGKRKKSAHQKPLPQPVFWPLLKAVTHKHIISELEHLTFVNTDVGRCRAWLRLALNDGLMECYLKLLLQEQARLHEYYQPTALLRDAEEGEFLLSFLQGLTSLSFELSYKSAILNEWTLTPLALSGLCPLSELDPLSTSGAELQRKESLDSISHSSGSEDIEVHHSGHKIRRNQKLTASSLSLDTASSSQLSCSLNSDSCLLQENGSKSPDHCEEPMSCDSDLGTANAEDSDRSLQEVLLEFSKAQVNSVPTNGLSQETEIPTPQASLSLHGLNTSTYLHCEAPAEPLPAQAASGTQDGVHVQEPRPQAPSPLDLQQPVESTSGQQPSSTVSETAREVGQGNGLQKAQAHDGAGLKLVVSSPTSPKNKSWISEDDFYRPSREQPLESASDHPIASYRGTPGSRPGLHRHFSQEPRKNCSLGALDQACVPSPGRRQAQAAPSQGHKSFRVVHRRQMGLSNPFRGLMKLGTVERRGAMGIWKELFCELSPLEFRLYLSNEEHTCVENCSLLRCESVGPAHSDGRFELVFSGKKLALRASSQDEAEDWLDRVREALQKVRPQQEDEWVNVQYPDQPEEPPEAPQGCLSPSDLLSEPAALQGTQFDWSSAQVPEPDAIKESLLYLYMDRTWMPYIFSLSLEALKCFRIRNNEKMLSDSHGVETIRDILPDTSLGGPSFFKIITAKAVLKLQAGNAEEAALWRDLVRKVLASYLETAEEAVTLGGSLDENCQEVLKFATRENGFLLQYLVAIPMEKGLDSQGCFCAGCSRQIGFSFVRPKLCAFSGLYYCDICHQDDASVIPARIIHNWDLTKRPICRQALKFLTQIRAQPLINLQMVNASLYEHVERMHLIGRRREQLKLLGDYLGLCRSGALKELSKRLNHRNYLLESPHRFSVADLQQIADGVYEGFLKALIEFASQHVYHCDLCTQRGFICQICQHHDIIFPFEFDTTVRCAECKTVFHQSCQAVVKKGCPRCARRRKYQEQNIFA
UniProt O14545: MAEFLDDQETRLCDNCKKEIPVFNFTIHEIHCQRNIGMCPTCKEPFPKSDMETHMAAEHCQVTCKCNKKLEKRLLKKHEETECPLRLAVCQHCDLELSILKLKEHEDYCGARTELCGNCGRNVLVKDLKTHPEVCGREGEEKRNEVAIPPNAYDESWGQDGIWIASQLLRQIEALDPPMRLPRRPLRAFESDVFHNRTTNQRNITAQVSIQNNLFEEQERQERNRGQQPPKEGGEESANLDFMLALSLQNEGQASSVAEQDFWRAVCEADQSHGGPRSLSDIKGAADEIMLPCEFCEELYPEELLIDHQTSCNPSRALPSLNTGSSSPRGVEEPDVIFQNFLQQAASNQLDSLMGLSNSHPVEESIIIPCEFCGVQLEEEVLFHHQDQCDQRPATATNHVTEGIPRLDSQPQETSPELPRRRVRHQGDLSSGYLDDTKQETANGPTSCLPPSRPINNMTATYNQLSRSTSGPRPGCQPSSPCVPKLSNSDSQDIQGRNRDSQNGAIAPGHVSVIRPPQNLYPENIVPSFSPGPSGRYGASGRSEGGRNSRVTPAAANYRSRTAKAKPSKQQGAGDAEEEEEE

Molecular target: TAP-tagged full-length human Plekhm1 (human) (UniProt Q9Y4G2)
Assay: affinity purification with mass spectrometry; tandem affinity purification (Streptavidin Sepharose, then Calmodulin Sepharose) of TAP-tagged Plekhm1 from lysate of stably expressing HEK293 cells; eluates analysed by LC-MS/MS

- binding: binds
Substance: TRAFD1 (FLN29), endogenous in HEK293 cells (from UniProt O14545 1-582)
